According to PubChem BioAssay AID1487 (National Center for Advancing Translational Sciences (NCATS), 2009):
The other results are listed elsewhere or left out. Further columns of the screen follow, without active or inactive calls. The list favours compounds with an active or inconclusive main result. Potencies come from curve fits of mixed quality, noted in brackets.

Assay: qHTS Assay for Modulators of Lamin A Splicing
Conditions: HeLa LMNA splicing GFP/RFP minigene ratio, 48 h
Summary of the method: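 Read-out is the ratio of GFP to DsRed2 object intensity, acquired by 488 nm laser-scanning cytometry on HeLa lamin A-EGFP minigene reporter cells. Compound incubation 48 hrs at 37 °C in Opti-MEM with 2% FBS; DMSO 0.5% final.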

[1] = measured here: GFP splicing reporter channel
[2] = measured here: RFP viability control channel

Structure (SMILES) | AC50 [1] | AC50 [2]
Cc1ccc(CSc2nnc(SCC(=O)N/N=C/c3c(C)nn(-c4ccccc4)c3C)s2)cc1 | 22.4 µM [rising, single point] | 25.1 µM [rising, single point]
CCOc1ccc(NC(=O)C2(c3cccs3)CCOCC2)cc1 | 0.0158 µM [falling, full curve, poor fit] | –
O=C1C(SCCO)=C(SCCO)C(=O)c2ccccc21 | 3.98 µM [falling, full curve] | 5.01 µM [falling, full curve]
Cc1cc(C(=O)NCCC2=CCCCC2)no1 | 0.562 µM [rising, partial curve, poor fit] | 7.08 µM [rising, partial curve, poor fit]
CC(C)(C)c1ccc(-c2nc(C#N)c(NCc3ccncc3)o2)cc1 | 35.5 µM [rising, single point] | 31.6 µM [rising, single point]
COc1cc(CC(=O)Nc2ccc3nc(C)sc3c2)cc(OC)c1OC | – | 25.1 µM [rising, single point]
COc1ccc(Oc2ncc3nc(-c4ccc(F)cc4)c(=O)n(Cc4cccs4)c3n2)cc1 | 14.1 µM [falling, partial curve] | –
O=C(COc1ccc(-c2ccccc2)cc1)N/N=C/c1cc(O)ccc1Br | – | 35.5 µM [rising, single point]
Cc1nn2c(-c3ccco3)nnc2c2ccccc12 | – | 6.31 µM [rising, full curve, poor fit]
Cc1onc(-c2c(F)cccc2Cl)c1C(=O)NCC1COc2ccccc2O1 (centres undefined) | 14.1 µM [rising, single point] | 17.8 µM [rising, single point]
CCOC(=O)Nc1ccc(S(=O)(=O)N2CCC(C)CC2)cc1 | – | 6.31 µM [rising, partial curve]
O=C(NCc1ccc(F)cc1)C(=O)NCC(c1ccco1)N1CCOCC1 (centres undefined) | – | 0.01 µM [falling, full curve, poor fit]
O=C(NCCc1ccccc1)c1oc2ccccc2c1COc1ccccc1 | 11.2 µM [rising, single point] | 25.1 µM [rising, single point]
CCN(CC)c1ccc(/C=N/Nc2nc(C)cc(=O)[nH]2)c(O)c1 | – | 10 µM [rising, partial curve]
CC1=C(C(=O)Nc2nc3ccccc3s2)C(c2ccco2)C(C#N)=C(SCC(=O)NC2CCCCC2)N1 (centres undefined) | 35.5 µM [rising, single point] | 35.5 µM [rising, single point]
Cc1ccc(C2CC2c2n[nH]c(=S)n2-c2cccc(C)c2)cc1 (centres undefined) | – | 2.82 µM [rising, single point]
Cc1cc(SCC(=O)NC(=O)NCc2ccco2)nc2ccccc12 | 35.5 µM [rising, single point] | 28.2 µM [rising, single point]
CCN(CC)S(=O)(=O)c1ccc2c(c1)nc(CCC(=O)Nc1ccc3c(c1)OCO3)n2CC | 20 µM [rising, single point] | 35.5 µM [rising, single point]
Cc1cc(NC(=O)c2ccc(F)cc2)n(CCOC(=O)c2ccc(F)cc2)n1 | – | 12.6 µM [rising, partial curve, poor fit]

Structure (SMILES) | AC50 [1] | AC50 [2]
O=C(Cc1ccc(-n2cccc2)cc1)NCc1cccs1 | – | 3.98 µM [rising, full curve]
CC(C)c1ccc(OC(=O)c2cc(-c3ccccc3)on2)cc1 | 35.5 µM [falling, single point] | 35.5 µM [falling, single point]
O=C(c1ccc(COc2ccc(Cl)cc2)o1)N1CCN(Cc2ccc3c(c2)OCO3)CC1 | – | 8.91 µM [rising, partial curve]
CCCC1Nc2ccc(C(=O)O)cc2C2C=CCC12 (centres undefined) | 1 µM [rising, partial curve, poor fit] | –
Fc1cc(F)c(F)c(SCCc2ccncc2)c1F | – | 0.178 µM [rising, single point]
COc1ccc(C2C(C(=O)Nc3cccnc3)=C(C)Nc3nc(-c4cccs4)nn32)cc1 (centres undefined) | – | 14.1 µM [rising, single point]
O=C(CN1CCN(c2ccccc2)CC1)Nc1ccccc1Sc1ccccc1 | – | 28.2 µM [rising, single point]
O=C(C[n+]1cc(-c2ccc(F)cc2)n2c1CCC2)N1c2ccccc2Sc2ccccc21 | – | 35.5 µM [rising, single point]
CSCC[C@H](NC(=O)OC(C)(C)C)c1nnc(SCc2cccc(F)c2)o1 | 35.5 µM [rising, single point] | 31.6 µM [rising, single point]
OCCC1CN(Cc2ccsc2)CCN1C1CCCC1 (centres undefined) | – | 6.31 µM [falling, partial curve, poor fit]
C=CCn1c(CNc2ccccc2)nnc1SCC(=O)N/N=C/c1ccccc1O | 31.6 µM [rising, single point] | 35.5 µM [rising, single point]
COc1ccc(CN2C(=O)c3ccccc3C2C(=O)NCCc2ccccc2)c(OC)c1 (centres undefined) | – | 0.447 µM [falling, single point]
CC(C)(C)NS(=O)(=O)c1cc(C(=O)Nc2sccc2C#N)ccc1Cl | 5.62 µM [rising, partial curve] | 11.2 µM [rising, partial curve]
O=C(O)CSCC(=O)Nc1ccc(S(=O)(=O)N2CCCCC2)cc1 | – | 0.0316 µM [falling, full curve]
Cn1c(=O)n(/N=C/c2ccccc2)c2ccccc21 | – | 0.158 µM [rising, full curve, poor fit]
COc1ccc(CNc2oc(-c3ccc(COc4ccccc4C)o3)nc2C#N)cc1 | – | 35.5 µM [falling, single point]
CCn1cc(C2=NOC(C(=O)Nc3cc(OC)c(Cl)cc3OC)C2)c(C)n1 (centres undefined) | 17.8 µM [rising, partial curve] | 15.8 µM [rising, partial curve]
Cc1ccc(-c2nc(C)c(CCNS(=O)(=O)c3ccc(F)c(C(F)(F)F)c3)s2)cc1 | 35.5 µM [falling, single point] | 35.5 µM [falling, single point]
CCCCC(CC)C(=O)Nc1ccc(C)c(O)c1 (centres undefined) | – | 11.2 µM [falling, partial curve, poor fit]

Arranged by SMILES length (high to low): part of the list above
Structure (SMILES) | AC50 [1] | AC50 [2]
CSCC[C@H](NC(=O)OC(C)(C)C)c1nnc(SCc2cccc(F)c2)o1 | 35.5 µM [rising, single point] | 31.6 µM [rising, single point]
COc1ccc(CNc2oc(-c3ccc(COc4ccccc4C)o3)nc2C#N)cc1 | – | 35.5 µM [falling, single point]
O=C(NCCc1ccccc1)c1oc2ccccc2c1COc1ccccc1 | 11.2 µM [rising, single point] | 25.1 µM [rising, single point]

The listing continues:

Structure (SMILES) | AC50 [1] | AC50 [2]
O=C(/C=C/c1ccc2c(c1)OCO2)c1ccccn1 | – | 14.1 µM [falling, single point]
CCOC(=O)c1sc(S(C)(=O)=O)c2c1CCc1conc1-2 | – | 0.0891 µM [falling, full curve, poor fit]
CCCOc1ccc2ccccc2c1/C=N/n1c(C)nnc1-n1nc(C)cc1C | – | 3.55 µM [rising, full curve, poor fit]
CC1(C)CCC2=C(O1)c1ccccc1C(=O)C2=O | 22.4 µM [falling, partial curve, poor fit] | 0.00501 µM [falling, full curve, poor fit]
CNc1nc(-c2ccc3c(c2)OCO3)nc2ccccc12 | 22.4 µM [falling, partial curve, poor fit] | –
COc1cc2c(c(OC)c1)C(c1cccc(OC)c1OC)CC(=O)N2 (centres undefined) | – | 12.6 µM [rising, single point]
CCSc1nnc(NC(=O)NC(C)(C(F)(F)F)C(F)(F)F)s1 | 7.94 µM [rising, partial curve] | 11.2 µM [rising, partial curve]
C=CCNc1nc(-c2ccccc2)c(C(=O)OCC)cc1C#N | 25.1 µM [falling, single point] | 17.8 µM [falling, single point]
CC(C)(C)CC(C)(C)N=C1NS(=O)(=O)c2cc([N+](=O)[O-])ccc21 | 12.6 µM [falling, partial curve, poor fit] | –
Nc1ncc(-n2cncn2)c(-c2ccccc2)n1 | – | 28.2 µM [falling, partial curve, poor fit]
O=S1(=O)CCN2C(=N1)Sc1c2ccc2c1CCCC2 | – | 14.1 µM [falling, single point]
O=C(c1ccccn1)c1cc2ccccc2n1S(=O)(=O)c1ccccc1 | 7.94 µM [rising, partial curve] | 10 µM [rising, partial curve]
NC1=NC(=Nc2ccc(Cl)cc2)c2ccccc21 | – | 35.5 µM [rising, single point]
C=C(C)CNC(=S)NNC(=O)CCn1c2ccc(Cl)cc2c2cc(Cl)ccc21 | 35.5 µM [falling, single point] | 22.4 µM [falling, single point]
O=C(Cc1ccccc1)Nc1nc(-c2cccs2)cs1 | – | 14.1 µM [rising, partial curve, poor fit]
COc1cccc(C(=O)CSc2nnc(-c3cc(OC)cc(OC)c3)o2)c1 | 0.178 µM [rising, full curve, poor fit] | –
CC(C)(C)c1ccc(C(=O)NC(=S)NCC2CCCO2)cc1 (centres undefined) | – | 15.8 µM [rising, partial curve]
CC(C)n1c(O)c(N=NC(=O)C2COc3ccccc3O2)c2ccccc21 (centres undefined) | 0.00631 µM [rising, full curve, poor fit] | 0.00501 µM [rising, full curve, poor fit]
CCOC(=O)c1c(-c2ccc(C)cc2)csc1NC(=O)C1CCCO1 (centres undefined) | 14.1 µM [rising, partial curve] | 22.4 µM [rising, partial curve]
